Article PMC7999522
No constants are given. Whether binding was seen depends on the method and setting. In cells and extracts the contact can be indirect. A yes stands for co-enrichment or nearness to the bait. Other partners may have been found. For part of these data: Where a sequence is shown, tags or fusion partners need not be part of it.

By UniProt entry, the sequences of proteins in these tests, tags left out.
UniProt Q14152: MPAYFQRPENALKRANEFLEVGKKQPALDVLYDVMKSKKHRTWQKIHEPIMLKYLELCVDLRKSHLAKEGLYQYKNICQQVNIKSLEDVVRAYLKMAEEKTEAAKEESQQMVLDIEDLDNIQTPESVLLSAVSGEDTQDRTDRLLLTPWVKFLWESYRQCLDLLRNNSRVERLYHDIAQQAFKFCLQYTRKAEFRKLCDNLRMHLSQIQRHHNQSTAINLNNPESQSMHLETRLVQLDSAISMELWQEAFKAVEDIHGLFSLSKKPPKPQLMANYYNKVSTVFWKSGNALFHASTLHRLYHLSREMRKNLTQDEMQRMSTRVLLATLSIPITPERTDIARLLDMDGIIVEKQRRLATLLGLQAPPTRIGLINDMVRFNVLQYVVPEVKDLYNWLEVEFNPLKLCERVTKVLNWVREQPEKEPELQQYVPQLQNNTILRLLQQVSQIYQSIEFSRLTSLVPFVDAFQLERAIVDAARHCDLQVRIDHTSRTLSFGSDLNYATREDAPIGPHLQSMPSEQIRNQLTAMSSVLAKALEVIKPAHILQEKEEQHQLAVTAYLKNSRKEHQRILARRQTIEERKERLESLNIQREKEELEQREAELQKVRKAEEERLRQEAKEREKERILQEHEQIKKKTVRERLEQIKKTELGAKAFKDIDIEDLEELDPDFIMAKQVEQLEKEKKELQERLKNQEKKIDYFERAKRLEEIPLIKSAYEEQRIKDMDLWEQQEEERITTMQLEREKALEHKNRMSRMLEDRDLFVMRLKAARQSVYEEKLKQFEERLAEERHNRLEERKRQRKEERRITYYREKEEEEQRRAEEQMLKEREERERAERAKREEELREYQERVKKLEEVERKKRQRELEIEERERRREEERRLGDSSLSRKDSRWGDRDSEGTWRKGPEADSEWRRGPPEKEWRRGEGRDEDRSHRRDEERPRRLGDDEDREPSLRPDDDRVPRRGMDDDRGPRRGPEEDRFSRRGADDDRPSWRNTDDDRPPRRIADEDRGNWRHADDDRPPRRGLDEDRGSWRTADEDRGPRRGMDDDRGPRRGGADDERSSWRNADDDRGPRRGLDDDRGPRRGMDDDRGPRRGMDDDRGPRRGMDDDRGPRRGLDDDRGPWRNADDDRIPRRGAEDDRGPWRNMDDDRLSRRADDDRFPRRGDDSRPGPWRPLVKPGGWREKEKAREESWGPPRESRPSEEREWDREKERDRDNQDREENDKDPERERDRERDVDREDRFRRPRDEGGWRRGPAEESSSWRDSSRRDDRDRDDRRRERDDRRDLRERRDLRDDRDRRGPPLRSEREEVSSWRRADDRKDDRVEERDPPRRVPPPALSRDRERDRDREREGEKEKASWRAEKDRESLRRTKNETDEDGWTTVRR

B1: DCD (protein, UniProt P81605 20-110)
chain: YDPEAASAPGSGNPCHEASAAQKENAGEDPGLARQAPKPRKQRSSLLEKGLDGAKKAVGGLGKLGKDAVEDLESVGKGAVHDVKDVLDSVL
B2: MKL2 (protein, UniProt Q9ULH7 1-1088)
chain: MIDSSKKQQQGFPEILTAGDFEPLKEKECLEGSNQKSLKEVLQLRLQQRRTREQLVDQGIMPPLKSPAAFHEQIKSLERARTENFLKHKIRSRPDRSELVRMHILEETFAEPSLQATQMKLKRARLADDLNEKIAQRPGPMELVEKNILPVDSSVKEAIIGVGKEDYPHTQGDFSFDEDSSDALSPDQPASQESQGSAASPSEPKVSESPSPVTTNTPAQFASVSPTVPEFLKTPPTADQPPPRPAAPVLPTNTVSSAKPGPALVKQSHPKNPNDKHRSKKCKDPKPRVKKLKYHQYIPPDQKGEKNEPQMDSNYARLLQQQQLFLQLQILSQQKQHYNYQTILPAPFKPLNDKNSNSGNSALNNATPNTPRQNTSTPVRKPGPLPSSLDDLKVSELKTELKLRGLPVSGTKPDLIERLKPYQEVNSSGLAAGGIVAVSSSAIVTSNPEVTVALPVTTLHNTVTSSVSTLKAELPPTGTSNATRVENVHSPLPISPSPSEQSSLSTDDTNMADTFTEIMTMMSPSQFLSSSPLRMTNNEDSLSPTSSTLSNLELDAAEKDRKLQEKEKQIEELKRKLEQEQKLVEVLKMQLEVEKRGQQQRPLEAQPSAPGHSVKSDQKHGSLGSSIKDEASLPDCSSSRQPIPVASHAVGQPVSTGGQTLVAKKAVVIKQEVPVGQAEQQSVVSQFYVSSQGQPPPAVVAQPQALLTTQTAQLLLPVSIQGSSVTSVQLPVGSLKLQTSPQAGMQTQPQIATAAQIPTAALASGLAPTVPQTQDTFPQHVLSQPQQVRKVFTNSASSNTVLPYQRHPAPAVQQPFINKASNSVLQSRNAPLPSLQNGPNTPNKPSSPPPPQQFVVQHSLFGSPVAKTKDPPRYEEAIKQTRSTQAPLPEISNAHSQQMDDLFDILIKSGEISLPIKEEPSPISKMRPVTASITTMPVNTVVSRPPPQVQMAPPVSLEPMGSLSASLENQLEAFLDGTLPSANEIPPLQSSSEDREPFSLIEDLQNDLLSHSGMLDHSHSPMETSETQFAAGTPCLSLDLSDSNLDNMEWLDITMPNSSSGLTPLSTTAPSMFSADFLDPQDLPLPWD
B3: HNRNPM (protein, UniProt P52272 1-730)
chain: MAAGVEAAAEVAATEIKMEEESGAPGVPSGNGAPGPKGEGERPAQNEKRKEKNIKRGGNRFEPYANPTKRYRAFITNIPFDVKWQSLKDLVKEKVGEVTYVELLMDAEGKSRGCAVVEFKMEESMKKAAEVLNKHSLSGRPLKVKEDPDGEHARRAMQKVMATTGGMGMGPGGPGMITIPPSILNNPNIPNEIIHALQAGRLGSTVFVANLDYKVGWKKLKEVFSMAGVVVRADILEDKDGKSRGIGTVTFEQSIEAVQAISMFNGQLLFDRPMHVKMDERALPKGDFFPPERPQQLPHGLGGIGMGLGPGGQPIDANHLNKGIGMGNIGPAGMGMEGIGFGINKMGGMEGPFGGGMENMGRFGSGMNMGRINEILSNALKRGEIIAKQGGGGGGGSVPGIERMGPGIDRLGGAGMERMGAGLGHGMDRVGSEIERMGLVMDRMGSVERMGSGIERMGPLGLDHMASSIERMGQTMERIGSGVERMGAGMGFGLERMAAPIDRVGQTIERMGSGVERMGPAIERMGLSMERMVPAGMGAGLERMGPVMDRMATGLERMGANNLERMGLERMGANSLERMGLERMGANSLERMGPAMGPALGAGIERMGLAMGGGGGASFDRAIEMERGNFGGSFAGSFGGAGGHAPGVARKACQIFVRNLPFDFTWKMLKDKFNECGHVLYADIKMENGKSKGCGVVKFESPEVAERACRMMNGMKLSGREIDVRIDRNA
B4: LUC7L2 (protein, UniProt Q9Y383 1-392)
chain: MSAQAQMRAMLDQLMGTSRDGDTTRQRIKFSDDRVCKSHLLNCCPHDVLSGTRMDLGECLKVHDLALRADYEIASKEQDFFFELDAMDHLQSFIADCDRRTEVAKKRLAETQEEISAEVAAKAERVHELNEEIGKLLAKVEQLGAEGNVEESQKVMDEVEKARAKKREAEEVYRNSMPASSFQQQKLRVCEVCSAYLGLHDNDRRLADHFGGKLHLGFIEIREKLEELKRVVAEKQEKRNQERLKRREEREREEREKLRRSRSHSKNPKRSRSREHRRHRSRSMSRERKRRTRSKSREKRHRHRSRSSSRSRSRSHQRSRHSSRDRSRERSKRRSSKERFRDQDLASCDRDRSSRDRSPRDRDRKDKKRSYESANGRSEDRRSSEEREAGEI
B5: PTMA (protein, UniProt P06454 1-111)
chain: MSDAAVDTSSEITTKDLKEKKEVVEEAENGRDAPANGNAENEENGEQEADNEVDEEEEEGGEEEEEEEEGDGEEEDGDEDEEAESATGKRAAEDDEDDDVDTKKQKTDEDD
B6: ATPO (protein, UniProt P48047 24-213)
chain: FAKLVRPPVQVYGIEGRYATALYSAASKQNKLEQVEKELLRVAQILKEPKVAASVLNPYVKRSIKVKSLNDITAKERFSPLTTNLINLLAENGRLSNTQGVVSAFSTMMSVHRGEVPCTVTSASPLEEATLSELKTVLKSFLSQGQVLKLEAKTDPSILGGMIVRIGEKYVDMSVKTKIQKLGRAMREIV

Experiments:
[1] = target: myc-BirA*-eIF3A fusion protein (UniProt Q14152); test: proximity labelling; BioID as a1, but cells treated with 1 µM thapsigargin (ER stress) for 3 h before biotin for 6 h or 24 h
[2] = target: myc-BirA*-eIF3A fusion protein (UniProt Q14152); test: proximity labelling; BioID: myc-BirA*-eIF3A against the myc-BirA* control, transiently transfected HEK-293T and HCT-116 cells, 50 µM biotin for 6 h or 24 h; RIPA lysate, streptavidin magnetic beads, washes with 8 M urea, 1% Triton, 0.5 M NaCl, 20% acetonitrile; on-bead trypsin digestion, LC-MS/MS, label-free ratio BirA*-eIF3A to BirA* above 1.5; some hits also kept in cells pre-treated with 1 µM thapsigargin

Row | Binder | binding [1] | binding [2]
1 | B1 | binds | –
2 | B2 | – | binds
3 | B3 | – | binds
4 | B4 | – | binds
5 | B5 | – | binds
6 | B6 | – | binds
